According to patent US20250208136A1, “Peptides and combinations of peptides for use in immunotherapy against oropharyngeal squamous cell carcinoma (OPSCC) and other cancers” (Eberhard Karls Universität Tübingen Medizinische Fakultät, priority 2022, published 2025):

Each sequence was assayed on HLA class I ligandomes of OPSCC tissue samples (assay: LC-MS/MS analysis of HLA class I ligandomes isolated from OPSCC tissue samples). Details: OPSCC samples positive for the restricting HLA allotype.
Design: species or system human

| Sequence | Peptide Representation frequency in allotype-positive samples |
| --- | --- |
| ALLGSAFQL [SEQ ID NO: 19, MHC/HLA class I peptide, allotype A*02:01] | 14% |
| ALTDIVSQV [SEQ ID NO: 21, MHC/HLA class I peptide, allotype A*02:01] | 18% |
| ARLAFVIVF [SEQ ID NO: 55, MHC/HLA class I peptide, allotype C*07:01] | 15% |
| ARLIPIIVL [SEQ ID NO: 62, MHC/HLA class I peptide, allotype C*06:02] | 43% |
| DATETTITI [SEQ ID NO: 39, MHC/HLA class I peptide, allotype B*51:01] | 23% |
| DQYKFLAV [SEQ ID NO: 40, MHC/HLA class I peptide, allotype B*51:01] | 54% |
| EETNPKGSGW [SEQ ID NO: 46, MHC/HLA class I peptide, allotype B*44:02] | 64% |
| EMEAQNQEY [SEQ ID NO: 26, MHC/HLA class I peptide, allotype A*01:01] | 29% |
| GLWEDGRSTLL [SEQ ID NO: 18, MHC/HLA class I peptide, allotype A*02:01] | 14% |
| GVLENIFGV [SEQ ID NO: 15, MHC/HLA class I peptide, allotype A*02:01] | 23% |
| HGTIKNQL [SEQ ID NO: 42, MHC/HLA class I peptide, allotype B*08:01] | 30% |
| KLAEISLGV [SEQ ID NO: 16, MHC/HLA class I peptide, allotype A*02:01] | 18% |
| KYMYFTVVM [SEQ ID NO: 33, MHC/HLA class I peptide, allotype A*24:02] | 58% |
| NWPSRPYLF [SEQ ID NO: 34, MHC/HLA class I peptide, allotype A*24:02] | 33% |
| REVVDPEVFF [SEQ ID NO: 49, MHC/HLA class I peptide, allotype B*40:01] | 50% |
| RLDDLKMTV [SEQ ID NO: 17, MHC/HLA class I peptide, allotype A*02:01] | 23% |
| RLLEGEDAHL [SEQ ID NO: 20, MHC/HLA class I peptide, allotype A*02:01] | 27% |
| RTDIARTEY [SEQ ID NO: 27, MHC/HLA class I peptide, allotype A*01:01] | 29% |
| RTEFNLNQY [SEQ ID NO: 25, MHC/HLA class I peptide, allotype A*01:01] | 57% |
| SAVKEGTAM [SEQ ID NO: 60, MHC/HLA class I peptide, allotype C*03:04] | 22% |
| SEPNDVFFKL [SEQ ID NO: 50, MHC/HLA class I peptide, allotype B*40:01] | 50% |
| SPEDGIHEL [SEQ ID NO: 57, MHC/HLA class I peptide, allotype C*04:01] | 25% |
| VAAPRWVL [SEQ ID NO: 43, MHC/HLA class I peptide, allotype B*08:01] | 30% |
| VALPVYLLI [SEQ ID NO: 41, MHC/HLA class I peptide, allotype B*51:01] | 31% |
| VFDLVELEVL [SEQ ID NO: 58, MHC/HLA class I peptide, allotype C*04:01] | 17% |
| YEEAMKEVL [SEQ ID NO: 61, MHC/HLA class I peptide, allotype C*03:04] | 22% |
| YEIDDVERL [SEQ ID NO: 59, MHC/HLA class I peptide, allotype C*03:04] | 33% |
| YSELASHVVSY [SEQ ID NO: 28, MHC/HLA class I peptide, allotype A*01:01] | 57% |
| YTFRYPLSL [SEQ ID NO: 54, MHC/HLA class I peptide, allotype C*07:01] | 23% |

Same assay, conditions: whole OPSCC cohort (n=40), HLA class I ligands

| Sequence | Peptide Representation frequency in cohort |
| --- | --- |
| ALLGSAFQL [SEQ ID NO: 19, MHC/HLA class I peptide, allotype A*02:01] | 8% |
| ALTDIVSQV [SEQ ID NO: 21, MHC/HLA class I peptide, allotype A*02:01] | 10% |
| ARLAFVIVF [SEQ ID NO: 55, MHC/HLA class I peptide, allotype C*07:01] | 5% |
| ARLIPIIVL [SEQ ID NO: 62, MHC/HLA class I peptide, allotype C*06:02] | 8% |
| DATETTITI [SEQ ID NO: 39, MHC/HLA class I peptide, allotype B*51:01] | 8% |
| DQYKFLAV [SEQ ID NO: 40, MHC/HLA class I peptide, allotype B*51:01] | 18% |
| EETNPKGSGW [SEQ ID NO: 46, MHC/HLA class I peptide, allotype B*44:02] | 13% |
| EMEAQNQEY [SEQ ID NO: 26, MHC/HLA class I peptide, allotype A*01:01] | 10% |
| GLWEDGRSTLL [SEQ ID NO: 18, MHC/HLA class I peptide, allotype A*02:01] | 8% |
| GVLENIFGV [SEQ ID NO: 15, MHC/HLA class I peptide, allotype A*02:01] | 13% |
| HGTIKNQL [SEQ ID NO: 42, MHC/HLA class I peptide, allotype B*08:01] | 8% |
| KLAEISLGV [SEQ ID NO: 16, MHC/HLA class I peptide, allotype A*02:01] | 10% |
| KYMYFTVVM [SEQ ID NO: 33, MHC/HLA class I peptide, allotype A*24:02] | 18% |
| NWPSRPYLF [SEQ ID NO: 34, MHC/HLA class I peptide, allotype A*24:02] | 10% |
| REVVDPEVFF [SEQ ID NO: 49, MHC/HLA class I peptide, allotype B*40:01] | 8% |
| RLDDLKMTV [SEQ ID NO: 17, MHC/HLA class I peptide, allotype A*02:01] | 13% |
| RLLEGEDAHL [SEQ ID NO: 20, MHC/HLA class I peptide, allotype A*02:01] | 15% |
| RTDIARTEY [SEQ ID NO: 27, MHC/HLA class I peptide, allotype A*01:01] | 10% |
| RTEFNLNQY [SEQ ID NO: 25, MHC/HLA class I peptide, allotype A*01:01] | 20% |
| SAVKEGTAM [SEQ ID NO: 60, MHC/HLA class I peptide, allotype C*03:04] | 5% |
| SEPNDVFFKL [SEQ ID NO: 50, MHC/HLA class I peptide, allotype B*40:01] | 8% |
| SPEDGIHEL [SEQ ID NO: 57, MHC/HLA class I peptide, allotype C*04:01] | 8% |
| VAAPRWVL [SEQ ID NO: 43, MHC/HLA class I peptide, allotype B*08:01] | 8% |
| VALPVYLLI [SEQ ID NO: 41, MHC/HLA class I peptide, allotype B*51:01] | 10% |
| VFDLVELEVL [SEQ ID NO: 58, MHC/HLA class I peptide, allotype C*04:01] | 5% |
| YEEAMKEVL [SEQ ID NO: 61, MHC/HLA class I peptide, allotype C*03:04] | 5% |
| YEIDDVERL [SEQ ID NO: 59, MHC/HLA class I peptide, allotype C*03:04] | 8% |
| YSELASHVVSY [SEQ ID NO: 28, MHC/HLA class I peptide, allotype A*01:01] | 20% |
| YTFRYPLSL [SEQ ID NO: 54, MHC/HLA class I peptide, allotype C*07:01] | 8% |
